The values below come from article PMC5893645.

The exact form of at least one protein or probe is not confirmed. For some assays here: At least one verdict was read from the data and is not stated in words by the source.

Data set [1] deals with MBP-ZmDREB4.1(31-147) (Zea mays). The experiment in a line: competition with a labelled probe. The following applies: unlabelled competitor against biotin-3xDRE; LightShift Chemiluminescent EMSA Kit (Thermo), manufacturer's instructions; pH and temperature not stated; recombinant protein; protein details: N-terminal MBP (pMAL-C2x).
For data set [2] the test system is unchanged. The experiment in a line: EMSA. The following applies: LightShift Chemiluminescent EMSA Kit (Thermo), manufacturer's instructions; pH and temperature not stated; recombinant protein; protein details: N-terminal MBP (pMAL-C2x); label: 5' biotin. A general note: A gel shift assay detects complexes by their altered migration in electrophoresis.

Regarding “GATATACTACCGACATGAGTTCGATATACTACCGACATGAGTTCGATATACTACCGACATGAGTTC (double strand) [3xDRE competitor 1 (unlabelled)]”, the binding result in data set [1] is given as “binds”.

In the case of “GATATACTACCGACATGAGTTCGATATACTACCGACATGAGTTCGATATACTACCGACATGAGTTC (double strand) [3xDRE probe (biotin)]”, in data set [2], the binding result was “binds”.
